According to the supplement of paper PMC3334620:
Over roughly 33,000 sequences, “E-score (-0.5 to 0.5)” has its median near -0.016; the highest 2% begin near 0.3. The list shows a part of the results.

molecular target: T1, Yer184c (UniProt P39961); assay: PBM E-score (8-mer binding enrichment) (E-score (-0.5 to 0.5)); higher = stronger / more preferred TF binding; conditions: protein concentration: 100 nM; construct: GST-full length
T1 sequence: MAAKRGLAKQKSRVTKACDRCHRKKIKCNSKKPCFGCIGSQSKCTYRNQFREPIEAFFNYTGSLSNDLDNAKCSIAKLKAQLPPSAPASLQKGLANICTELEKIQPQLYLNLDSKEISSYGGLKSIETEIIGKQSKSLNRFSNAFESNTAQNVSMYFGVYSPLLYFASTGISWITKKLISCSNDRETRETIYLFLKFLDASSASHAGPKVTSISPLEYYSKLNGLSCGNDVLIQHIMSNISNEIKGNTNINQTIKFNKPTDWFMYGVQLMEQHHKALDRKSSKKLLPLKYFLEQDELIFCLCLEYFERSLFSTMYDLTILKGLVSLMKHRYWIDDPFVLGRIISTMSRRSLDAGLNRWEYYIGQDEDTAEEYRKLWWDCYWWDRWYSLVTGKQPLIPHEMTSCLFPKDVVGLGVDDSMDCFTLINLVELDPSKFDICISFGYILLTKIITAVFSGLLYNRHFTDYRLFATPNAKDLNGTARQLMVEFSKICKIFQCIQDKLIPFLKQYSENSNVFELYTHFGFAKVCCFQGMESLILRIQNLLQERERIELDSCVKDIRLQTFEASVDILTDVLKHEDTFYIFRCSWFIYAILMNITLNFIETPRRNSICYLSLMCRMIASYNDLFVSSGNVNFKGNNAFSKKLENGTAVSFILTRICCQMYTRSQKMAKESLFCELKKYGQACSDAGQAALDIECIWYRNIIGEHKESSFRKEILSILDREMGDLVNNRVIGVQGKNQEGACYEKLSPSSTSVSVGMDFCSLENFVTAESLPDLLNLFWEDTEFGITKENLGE
Procedure, shortened: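 Yeast transcription factors, full-length or as DNA-binding domains, were expressed with a GST tag using PURExpress in vitro transcription/translation. At about 100-200 nM they were applied to universal all-10-mer Agilent arrays, double-stranded by primer extension on fresh or once-stripped slides. Fluorescent anti-GST detected bound protein, and masliner normalised the scans. E-scores for ungapped eight-base words, pooled with reverse complements, came from the Universal PBM Analysis Suite.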

Sequence | PBM E-score
CTCATCAC | -0.154
AAGGGCCA | -0.32
CGCGCAAA | 0.177
TCCACTAA | 0.0945
ACTCCTAA | -0.0919
CGCCCGAG | 0.172
ATAACATA | 0.0728
ACTGCGTA | -0.231
CTGGGTAA | 0.00534
CTGCCCCA | -0.16
ATCGGGTG | 0.155
ATACACGC | 0.105
GAAACTAA | 0.00372
GCTATGAA | 0.00489
AACACAAT | 0.139
ATTGTACG | 0.017
GTCCAGTA | -0.134
AATGTGCT | 0.137
TCCGGTCA | 0.116
CTGGCATC | -0.302
ACGCTTTC | -0.166
AGGGCCTA | -0.176
AATCCGCA | 0.101
AAGGTATC | -0.0263
CTATGGTC | -0.0949

Sequence | PBM E-score
CTGGCGTA | -0.237
CCAAGCCA | -0.222
AAGAAAAG | 0.055
TCGTACAA | 0.0657
CACTACTG | -0.21
GAAGGCCA | -0.384
AATAACAA | 0.105
ATTGACCG | 0.101
CCCAGATA | -0.193
ATCTTATA | 0.13
ACCATTCA | 0.00717
ACAGCCGC | -0.0252
CAACGCGG | 0.0794
TCGACACA | 0.0956
ATAGAGTA | -0.00142
GGTGCGAA | 0.0393
GAACACGA | 0.132
ACAAGCCG | 0.22
GGTTCAAC | 0.00881
AAGATAGT | 0.108
GGGGCGTA | -0.231
CACTACCG | -0.0663
CCGGCTGA | 0.327
ACTTTGTC | -0.0343
CCAGCTCA | -0.235

Sequence | PBM E-score
ACAAAGCC | 0.0883
AATGATTG | 0.0403
AGGTTCGA | 0.0505
TAAACACA | 0.0625
AGGATCCG | 0.102
ATGTCAAC | -0.0333
GGGTGACA | -0.0674
AGTCGGAA | 0.245
TCCAGCAA | -0.0646
CGGTTTAG | 0.11
AGCAGAAT | 0.098
TCCTGAAA | 0.0897
AGGTTATC | -0.0359
CCGTCCAC | -0.013
ATCACGTC | -0.188
AGACTGTA | -0.072
AATGGTGG | -0.189
ACTGTCGG | 0.0175
AATGAAAA | 0.137
CTACGATA | -0.00818
GTGGCGCA | -0.186
GCGTCGGA | 0.185
GCTCTAAA | -0.0151
ATAAAAGA | 0.0206
CCTATTCC | -0.0406

Sequence | PBM E-score
AGATCGGG | -0.0198
CAAGATTC | 0.134
AGATAGAC | 0.0029
GAATCAGA | 0.198
ATATATGC | 0.113
ACGCTTGG | -0.161
CTGCTTGA | -0.107
AGCTAACT | -0.0425
ACAGTATC | -0.0169
ATGAATAA | -0.106
GACGGACC | 0.14
GCTATGGA | -0.192
AGGGAACT | -0.0662
CGCGCATC | -0.0187
ATCTGGGA | -0.2
CAAGGGCG | -0.235
ACGCAGAT | 0.148
CTCCTTCC | -0.163
CCACCCAA | -0.303
AATAACGG | 0.287
GACGATGC | -0.0312
TCGCGAGA | 0.0874
AGCTACGG | -0.102
ACGCGCCA | -0.086
AGTCAAGC | -0.249

Sequence | PBM E-score
ATTTTTAA | 0.333
CAAAGGAC | -0.24
CGATGGTA | -0.146
GCAACACC | 0.0665
AATGGGCA | -0.216
CAACTATC | 0.0598
GCCACAGA | -0.108
CGAAACCG | 0.253
CAACAAGG | 0.0959
CTGTGCAC | -0.124
AAAAATGA | 0.0565
CTCCTGTC | -0.0001
ATAAGGAG | 0.0268
GCCGTTAC | 0.119
CTCCATCA | 0.0642
GGTGGCAC | -0.209
ATTGAGGA | -0.0886
AAGGGTGG | -0.257
AGCCACCA | -0.138
ATATATAG | 0.282
TCTAATAA | 0.0583
ACGTATGC | -0.0879
ATTCATGC | -0.0971
GTTCGCTA | 0.024
ACCCTGAA | -0.111

Sequence | PBM E-score
AGCAACGA | -0.0285
GATACGCA | -0.0515
GGCAAGAA | 0.151
GGGGCACA | -0.168
GAGCAGGA | 0.0604
TAAGAACA | 0.26
ACACAGTG | -0.0369
GTTCTTTA | 0.178
GATCAACC | 0.0294
TCGCAAAA | 0.0605
GGCGATAC | -0.0212
TCGCTCAA | 0.047
AATGATGA | 0.0323
CTGGGATA | 0.076
AGAATTTA | 0.121
TCGTTTAA | 0.11
TCGCGACA | -0.0138
CTTACCGA | 0.259
CCAGGGGA | -0.174
AAGCATGA | 0.0348
CCAGTCTC | -0.203
GCCAAGCC | -0.157
CCACCACG | -0.139
AACCTCAC | -0.0921
CTAAACCA | 0.0368

Looked up one by one from the entries so far:
Sequence | PBM E-score
GATCAACC | 0.0294
AGAATTTA | 0.121
AATGATGA | 0.0323
CTTACCGA | 0.259

Later entries

Sequence | PBM E-score
ATATCATC | 0.0201
ACGGATTA | 0.183
AATGTGAA | 0.171
ACTGCGCT | -0.181
TCGTACCA | 0.099
GCGTTGCA | 0.107
AAAGCCTG | -0.111
GCCTCGAA | 0.165
TAGGCCTA | 0.031
ATAGGGAC | -0.171
CTGAATTC | -0.0945
CCTAGAAG | -0.226
ACTCTGGA | 0.0998
AGGCTTCA | -0.108
ATGTTCCA | 0.016
ACTGGAGG | -0.13
GCTACCAA | -0.0319
GCCGCGCC | 0.0555
AGATAGTG | 0.118
ACTGCGGA | 0.0355
ACCGCGCT | 0.0255
AGGAACGA | -0.141

Part of the list above, field by field.
TAGGCCTA
  PBM E-score = 0.031
ATAGGGAC
  PBM E-score = -0.171
CTGAATTC
  PBM E-score = -0.0945
CCTAGAAG
  PBM E-score = -0.226
